From publication doi:10.1101/219246
These are yes or no findings as the source states them, for the method shown. For part of these data: Binding seen in cells or lysates may run through a third protein. Some binding calls cover weakened binding; strength is not graded here.

Amino acid sequences for entries named in this document (tags omitted). A change or cut given only in a name is not applied to a line headed by its entry. Chains listed by the source or under a name are the forms on record and can include a tag or linker.
p135 with N-terminal Twin-Strep tag (Q14203, form named): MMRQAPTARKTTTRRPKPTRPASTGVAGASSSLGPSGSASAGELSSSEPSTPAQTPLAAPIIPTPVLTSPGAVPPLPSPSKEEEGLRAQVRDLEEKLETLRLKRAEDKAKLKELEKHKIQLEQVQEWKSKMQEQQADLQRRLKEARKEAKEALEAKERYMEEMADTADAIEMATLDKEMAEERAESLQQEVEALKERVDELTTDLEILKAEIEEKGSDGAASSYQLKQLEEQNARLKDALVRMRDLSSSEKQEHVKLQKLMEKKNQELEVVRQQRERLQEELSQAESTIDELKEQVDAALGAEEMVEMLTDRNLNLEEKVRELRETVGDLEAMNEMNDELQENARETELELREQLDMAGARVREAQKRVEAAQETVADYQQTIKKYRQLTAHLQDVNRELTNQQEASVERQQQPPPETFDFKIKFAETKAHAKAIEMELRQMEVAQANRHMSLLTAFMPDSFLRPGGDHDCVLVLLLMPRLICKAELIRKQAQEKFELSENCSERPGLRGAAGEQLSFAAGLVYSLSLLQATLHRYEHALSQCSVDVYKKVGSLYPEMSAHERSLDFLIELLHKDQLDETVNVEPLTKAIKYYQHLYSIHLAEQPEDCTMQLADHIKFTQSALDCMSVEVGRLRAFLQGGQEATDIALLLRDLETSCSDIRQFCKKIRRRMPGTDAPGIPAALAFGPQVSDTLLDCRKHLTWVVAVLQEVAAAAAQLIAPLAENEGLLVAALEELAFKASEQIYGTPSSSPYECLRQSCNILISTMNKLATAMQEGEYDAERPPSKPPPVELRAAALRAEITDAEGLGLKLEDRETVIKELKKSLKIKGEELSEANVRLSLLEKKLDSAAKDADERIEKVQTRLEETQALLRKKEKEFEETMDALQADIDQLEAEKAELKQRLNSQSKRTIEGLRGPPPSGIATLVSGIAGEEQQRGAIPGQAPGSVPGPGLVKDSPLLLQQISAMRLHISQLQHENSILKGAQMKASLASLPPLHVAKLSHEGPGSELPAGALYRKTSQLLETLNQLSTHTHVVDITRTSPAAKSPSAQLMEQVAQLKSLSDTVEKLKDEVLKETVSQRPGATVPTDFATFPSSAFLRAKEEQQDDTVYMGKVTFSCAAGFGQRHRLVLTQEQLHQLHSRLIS
UniProt O00471: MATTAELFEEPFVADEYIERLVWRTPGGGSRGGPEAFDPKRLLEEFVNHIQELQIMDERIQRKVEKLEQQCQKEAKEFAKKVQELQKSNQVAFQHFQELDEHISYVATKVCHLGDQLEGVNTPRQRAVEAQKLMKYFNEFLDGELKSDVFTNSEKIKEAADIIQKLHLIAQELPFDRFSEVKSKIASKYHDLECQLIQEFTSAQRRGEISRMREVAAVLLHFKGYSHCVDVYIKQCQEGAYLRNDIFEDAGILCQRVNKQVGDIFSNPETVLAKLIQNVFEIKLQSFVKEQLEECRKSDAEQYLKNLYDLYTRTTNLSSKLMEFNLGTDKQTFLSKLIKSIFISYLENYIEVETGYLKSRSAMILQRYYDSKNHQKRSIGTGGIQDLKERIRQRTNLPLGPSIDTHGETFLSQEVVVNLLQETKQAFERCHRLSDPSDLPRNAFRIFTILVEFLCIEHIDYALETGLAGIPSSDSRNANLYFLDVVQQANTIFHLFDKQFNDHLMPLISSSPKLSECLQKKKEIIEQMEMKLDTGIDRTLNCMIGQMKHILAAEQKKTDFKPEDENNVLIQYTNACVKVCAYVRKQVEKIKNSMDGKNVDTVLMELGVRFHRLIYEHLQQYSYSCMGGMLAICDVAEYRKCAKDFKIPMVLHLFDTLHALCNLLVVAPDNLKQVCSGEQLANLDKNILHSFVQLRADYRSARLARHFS
UniProt P61163: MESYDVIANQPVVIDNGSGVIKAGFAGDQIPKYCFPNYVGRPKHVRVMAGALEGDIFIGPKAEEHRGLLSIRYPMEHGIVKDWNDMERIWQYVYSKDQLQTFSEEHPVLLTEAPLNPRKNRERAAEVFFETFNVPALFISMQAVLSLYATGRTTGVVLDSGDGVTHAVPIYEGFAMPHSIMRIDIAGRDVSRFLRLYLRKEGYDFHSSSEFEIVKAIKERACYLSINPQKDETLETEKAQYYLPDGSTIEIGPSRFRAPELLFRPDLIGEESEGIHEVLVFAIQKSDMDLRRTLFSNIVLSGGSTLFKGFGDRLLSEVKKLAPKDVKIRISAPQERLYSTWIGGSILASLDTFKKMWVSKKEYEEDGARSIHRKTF
UniProt Q9NZ32: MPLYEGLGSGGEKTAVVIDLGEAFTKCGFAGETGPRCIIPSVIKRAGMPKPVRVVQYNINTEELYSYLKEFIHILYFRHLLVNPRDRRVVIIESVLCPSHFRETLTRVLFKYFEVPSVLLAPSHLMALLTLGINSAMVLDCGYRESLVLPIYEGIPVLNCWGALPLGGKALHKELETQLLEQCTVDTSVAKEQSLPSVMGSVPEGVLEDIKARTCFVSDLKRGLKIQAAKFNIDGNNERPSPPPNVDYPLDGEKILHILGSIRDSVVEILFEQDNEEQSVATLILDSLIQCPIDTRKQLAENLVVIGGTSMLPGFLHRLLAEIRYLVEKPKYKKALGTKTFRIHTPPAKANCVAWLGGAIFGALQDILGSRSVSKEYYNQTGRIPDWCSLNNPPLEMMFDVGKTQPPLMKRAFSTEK
UniProt P47756: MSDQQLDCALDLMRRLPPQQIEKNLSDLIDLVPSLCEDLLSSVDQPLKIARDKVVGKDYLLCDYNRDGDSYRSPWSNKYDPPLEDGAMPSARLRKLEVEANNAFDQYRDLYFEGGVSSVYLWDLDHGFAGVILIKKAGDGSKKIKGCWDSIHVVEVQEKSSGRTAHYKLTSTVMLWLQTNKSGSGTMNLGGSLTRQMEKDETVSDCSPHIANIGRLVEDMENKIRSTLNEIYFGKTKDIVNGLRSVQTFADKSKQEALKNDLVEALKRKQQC
UniProt Q8TAG9: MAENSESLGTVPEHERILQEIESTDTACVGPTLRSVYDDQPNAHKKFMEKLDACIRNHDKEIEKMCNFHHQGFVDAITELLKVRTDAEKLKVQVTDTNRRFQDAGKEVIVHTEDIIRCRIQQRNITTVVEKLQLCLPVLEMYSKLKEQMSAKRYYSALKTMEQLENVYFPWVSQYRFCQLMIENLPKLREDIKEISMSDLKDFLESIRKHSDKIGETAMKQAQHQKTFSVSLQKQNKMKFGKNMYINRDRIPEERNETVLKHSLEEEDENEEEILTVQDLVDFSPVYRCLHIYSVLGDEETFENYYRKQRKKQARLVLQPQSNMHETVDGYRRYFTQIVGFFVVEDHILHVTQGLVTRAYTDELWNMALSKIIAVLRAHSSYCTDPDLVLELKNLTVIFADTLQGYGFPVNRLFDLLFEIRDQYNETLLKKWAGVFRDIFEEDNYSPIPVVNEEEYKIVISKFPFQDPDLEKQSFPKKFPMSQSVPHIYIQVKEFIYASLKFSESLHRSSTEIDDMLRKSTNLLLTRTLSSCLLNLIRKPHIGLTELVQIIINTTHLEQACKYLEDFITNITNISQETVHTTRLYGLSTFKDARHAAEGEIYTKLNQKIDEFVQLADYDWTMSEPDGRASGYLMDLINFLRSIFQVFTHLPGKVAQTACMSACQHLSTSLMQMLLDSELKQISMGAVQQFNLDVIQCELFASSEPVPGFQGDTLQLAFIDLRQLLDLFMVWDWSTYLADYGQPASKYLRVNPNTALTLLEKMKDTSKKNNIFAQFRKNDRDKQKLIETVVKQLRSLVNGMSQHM
UniProt O75935: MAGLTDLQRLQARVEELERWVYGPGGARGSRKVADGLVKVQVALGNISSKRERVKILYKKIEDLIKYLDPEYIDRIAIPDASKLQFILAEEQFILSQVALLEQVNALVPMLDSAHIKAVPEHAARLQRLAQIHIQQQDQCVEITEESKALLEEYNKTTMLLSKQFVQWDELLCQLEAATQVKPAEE
UniProt Q9BTE1: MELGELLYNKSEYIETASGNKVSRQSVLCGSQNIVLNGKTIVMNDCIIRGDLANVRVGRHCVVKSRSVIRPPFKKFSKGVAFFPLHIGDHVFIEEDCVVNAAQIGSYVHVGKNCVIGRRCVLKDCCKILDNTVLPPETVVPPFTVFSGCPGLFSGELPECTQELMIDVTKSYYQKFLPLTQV
UniProt O00399: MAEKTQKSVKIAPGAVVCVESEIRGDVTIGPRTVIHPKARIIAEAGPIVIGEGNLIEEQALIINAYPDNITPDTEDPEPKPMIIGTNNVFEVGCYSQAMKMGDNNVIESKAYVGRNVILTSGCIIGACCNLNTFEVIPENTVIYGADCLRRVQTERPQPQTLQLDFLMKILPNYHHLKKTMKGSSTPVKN
UniProt Q9UJW0: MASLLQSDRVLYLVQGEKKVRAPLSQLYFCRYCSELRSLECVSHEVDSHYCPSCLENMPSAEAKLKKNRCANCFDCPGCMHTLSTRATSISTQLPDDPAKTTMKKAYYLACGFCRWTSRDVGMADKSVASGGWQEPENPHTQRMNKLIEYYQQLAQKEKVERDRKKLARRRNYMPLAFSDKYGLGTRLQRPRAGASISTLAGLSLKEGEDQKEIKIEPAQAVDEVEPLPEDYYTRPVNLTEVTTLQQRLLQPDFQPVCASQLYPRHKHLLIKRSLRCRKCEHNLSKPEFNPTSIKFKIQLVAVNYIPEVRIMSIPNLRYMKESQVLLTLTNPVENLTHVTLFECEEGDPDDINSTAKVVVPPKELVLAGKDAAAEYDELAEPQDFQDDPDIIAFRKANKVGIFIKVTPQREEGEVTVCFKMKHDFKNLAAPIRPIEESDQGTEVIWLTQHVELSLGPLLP

Assays:
[1] = target: p135 with N-terminal Twin-Strep tag (human) (UniProt Q14203); experiment: pull-down
[2] = target: p135 with N-terminal Twin-Strep tag (human) (UniProt Q14203); experiment: native gel or EMSA
[3] = target: N-terminal Twin Strep-tagged EXOC5 (human) (UniProt O00471); experiment: pull-down

Substance	binding [1]	binding [2]	binding [3]
Arp1 (from UniProt P61163 1-376)	binds	binds	–
Arp11 (from UniProt Q9NZ32 1-417)	binds	binds	–
CapZβ (from UniProt P47756 1-272)	binds	binds	–
EXOC6 (from UniProt Q8TAG9 1-804)	–	–	binds
p24 (from UniProt O75935 1-186)	binds	binds	–
p25 (from UniProt Q9BTE1 1-182)	binds	binds	–
p27 (from UniProt O00399 1-190)	binds	binds	–
p62 (from UniProt Q9UJW0 1-460)	binds	binds	–
